Taken from: PubChem BioAssay AID1508588 (Peter MacCallum Cancer Centre, 2020)
In all, the deposit lists about 18,000 reagents; shown is an unselected part. Over the whole deposit, 790 (4.4%) got an active call. 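Calls rest on a combination of fold-change classes in drug and vehicle arms, not all shown here.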 Entries without a mark were called inactive. Some reagents were tested in more than one well and are listed for each. Reagent sequences are not shown.

Test: 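Genome-wide search for knock-downs that heighten vemurafenib action in melanoma cells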 (primary screen)
Cell system: human WM266.4 melanoma cells (BRAF V600 mutant)
Reagent: siRNA pool against human genes, 40 nM
Time to read-out: 96 h from transfection to read-out
Challenge: vemurafenib 300 nM (about IC25), added 48 h after transfection, for 48 h; comparison arm got DMSO vehicle only
Measurement: 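Ratios to non-targeting siRNA for cell gain, counted as DAPI nuclei after minus before drug and averaged over two replicates, and for absorbance-read medium lactate per cell; both binned into fold-change classes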
Direction: cell gain with vemurafenib: higher = more cell gain than with non-targeting siRNA; lactate per cell with vemurafenib: higher = more lactate made per cell
Active means: 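Enhancement is called by pairing each knock-down's vehicle-arm and drug-arm fold-change classes for viability or glycolysis; which class combinations qualify is not given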
Calls: active = enhances vemurafenib effect; inactive = no enhancement seen

| target | cell gain with vemurafenib | lactate per cell with vemurafenib |
| --- | --- | --- |
| FCN2 (ficolin 2) | 0.91 | 1.58 |
| POLQ (DNA polymerase theta) | 0.52 | 1.12 |
| EPDR1 (ependymin related 1) | 0.8 | 0.77 |
| LRRC36 (leucine rich repeat containing 36) | 0.23 | 0.82 |
| IRAK1BP1 (interleukin 1 receptor associated kinase 1 binding protein 1) | 0.8 | 0.86 |
| BTN3A3 (butyrophilin subfamily 3 member A3) | 0.41 | 0.98 |
| ZBED4 (zinc finger BED-type containing 4) | 0.59 | 0.42 |
| SPHK1 (sphingosine kinase 1) | 0.3 | 0.98 |
| TMEM171 (transmembrane protein 171) | 0.62 | 1.21 |
| CCL13 (C-C motif chemokine ligand 13) | 0.64 | 0.54 |
| OSER1 (oxidative stress responsive serine rich 1) | 0.41 | 1.27 |
| FIGNL1 (fidgetin like 1) | 0.81 | 0.78 |
| YBX2 (Y-box binding protein 2) | 1.09 | 0.77 |
| FOXRED1 (FAD dependent oxidoreductase domain containing 1) | 0.41 | 1.27 |
| LRIF1 (ligand dependent nuclear receptor interacting factor 1) | 0.79 | 0.86 |
| EXTL3 (exostosin like glycosyltransferase 3) | 0.76 | 0.84 |
| TMEM119 (transmembrane protein 119) | 0.77 | 0.7 |
| B3GALNT2 (beta-1,3-N-acetylgalactosaminyltransferase 2) | 1.23 | 0.81 |
| DLX6 (distal-less homeobox 6) | 0.28 | 2.17 |
| IFT70A (intraflagellar transport 70A) | 0.3 | 0.59 |
| ASB16 (ankyrin repeat and SOCS box containing 16) | 0.49 | 1.19 |
| SNX21 (sorting nexin family member 21) | 0.67 | 0.64 |
| SPDYC (speedy/RINGO cell cycle regulator family member C) | 1.07 | 0.74 |
| RAPGEF3 (Rap guanine nucleotide exchange factor 3) | 0.01 | 0.57 |
| PAGE2B (PAGE family member 2B) | 0.96 | 0.28 |
| PPP1R11 (protein phosphatase 1 regulatory inhibitor subunit 11) | 0.29 | 1.64 |
| CNN2 (calponin 2) | 0.7 | 1.71 |
| PSMD10 (proteasome 26S subunit, non-ATPase 10) | 0.42 | 0.64 |
| ESF1 (ESF1 nucleolar pre-rRNA processing protein) | 0.69 | 0.8 |
| TDRD9 (tudor domain containing 9) | 0.53 | 0.64 |
| NPR2 (natriuretic peptide receptor 2) | 0.98 | 0.67 |
| NPR2 (natriuretic peptide receptor 2) | 0.78 | 1.06 |
| ITGB3BP (integrin subunit beta 3 binding protein) | 0.74 | 0.64 |
| BRMS1 (BRMS1 transcriptional repressor and anoikis regulator) | 0.56 | 0.86 |
| TMEM202 (transmembrane protein 202) | 0.72 | 0.54 |
| VCP (valosin containing protein) | 0.05 | 2.95 |
| AS3MT (arsenite methyltransferase) | 0.1 (active) | 0.55 |
| LENG9 (leukocyte receptor cluster member 9) | 0.64 | 1.06 |
| RAB5B (RAB5B, member RAS oncogene family) | 0.81 | 0.71 |
| DYNLT2 (dynein light chain Tctex-type 2) | 0.52 | 0.98 |
| DDX54 (DEAD-box helicase 54) | 0.12 | 1.05 |
| PPP3R1 (protein phosphatase 3 regulatory subunit B, alpha) | 0.51 | 0.42 |
| KGD4 (alpha-ketoglutarate dehydrogenase subunit 4) | 0.57 | 0.67 |
| ARL1 (ARF like GTPase 1) | 0.8 | 0.79 |
| SPRR2B (small proline rich protein 2B) | 0.88 | 0.73 |
| CDK5RAP2 (CDK5 regulatory subunit associated protein 2) | 0.55 | 0.94 |
| GPATCH8 (G-patch domain containing 8) | 0.64 | 1.45 |
| REPS1 (RALBP1 associated Eps domain containing 1) | 0.92 | 0.9 |
| FBXL16 (F-box and leucine rich repeat protein 16) | 0.85 | 0.91 |
| PAX5 (paired box 5) | 0.58 | 1.06 |
| CT47A9 (cancer/testis antigen family 47 member A9) | 0.81 | 0.54 |
| CDK5RAP1 (CDK5RAP1 mitochondrial tRNA methylthiotransferase) | 0.4 | 0.74 |
| SPAG9 (sperm associated antigen 9) | -0.08 | 1.81 |
| RPP14 (ribonuclease P/MRP subunit p14) | 0.49 | 1.49 |
| NAALAD2 (N-acetylated alpha-linked acidic dipeptidase 2) | 0.4 | 0.72 |
| SEC11A (SEC11 homolog A, signal peptidase complex subunit) | 0.5 | 1.15 |
| CENPA (centromere protein A) | 0.29 | 1.85 |
| ZDHHC5 (zDHHC palmitoyltransferase 5) | 0.84 | 0.96 |
| DAP (death associated protein) | 0.29 | 0.66 |
| LAMC1 (laminin subunit gamma 1) | 0.8 | 0.45 |
| TDRKH (tudor and KH domain containing) | 0.78 | 1.25 |
| FGFRL1 (fibroblast growth factor receptor like 1) | 0.57 | 0.89 |
| ITPRID2 (ITPR interacting domain containing 2) | 0.91 | 0.6 |
| TPM4 (tropomyosin 4) | 0.67 | 0.55 |
| MSMO1 (methylsterol monooxygenase 1) | 0.97 | 0.64 |
| VMA22 (vacuolar ATPase assembly factor VMA22) | 0.67 | 0.52 |
| ATIC | 0.62 (active) | 0.62 |
| OR4C11 (olfactory receptor family 4 subfamily C member 11) | 0.25 | 0.9 |
| BICRA | 1.05 | 0.42 |
| HLA-DOA (major histocompatibility complex, class II, DO alpha) | 0.54 | 1.23 |
| BROX (BRO1 domain and CAAX motif containing) | 0.54 | 1.69 |
| SCRG1 (stimulator of chondrogenesis 1) | 0.29 | 2.29 |
| CMTM8 (CKLF like MARVEL transmembrane domain containing 8) | 0.41 (active) | 0.48 |
| RPS9 (ribosomal protein S9) | 0.88 | 0.87 |
| NDUFB6 (NADH:ubiquinone oxidoreductase subunit B6) | 0.3 | 1.54 |
| LCP2 (lymphocyte cytosolic protein 2) | 0.76 | 1.3 |
| APOA5 (apolipoprotein A5) | 0.99 | 1.38 |
| LMCD1 (LIM and cysteine rich domains 1) | 0.72 | 0.48 |
| ZNF706 (zinc finger protein 706) | 0.44 | 0.96 |
| SLC39A7 | 0.28 | 0.88 |
| PRSS42P (serine protease 42, pseudogene) | 0.04 | 1.56 |
| TP53I3 (tumor protein p53 inducible protein 3) | 0.11 | 2.07 |
| ZMAT4 (zinc finger matrin-type 4) | 1.07 | 0.82 |
| GNE | 1.09 | 0.96 |

Sorted by “cell gain with vemurafenib” (high to low): 10 of the entries above
| target | cell gain with vemurafenib | lactate per cell with vemurafenib |
| --- | --- | --- |
| B3GALNT2 (beta-1,3-N-acetylgalactosaminyltransferase 2) | 1.23 | 0.81 |
| SPDYC (speedy/RINGO cell cycle regulator family member C) | 1.07 | 0.74 |
| LRIF1 (ligand dependent nuclear receptor interacting factor 1) | 0.79 | 0.86 |
| TMEM119 (transmembrane protein 119) | 0.77 | 0.7 |
| EXTL3 (exostosin like glycosyltransferase 3) | 0.76 | 0.84 |
| SNX21 (sorting nexin family member 21) | 0.67 | 0.64 |
| ASB16 (ankyrin repeat and SOCS box containing 16) | 0.49 | 1.19 |
| FOXRED1 (FAD dependent oxidoreductase domain containing 1) | 0.41 | 1.27 |
| IFT70A (intraflagellar transport 70A) | 0.3 | 0.59 |
| DLX6 (distal-less homeobox 6) | 0.28 | 2.17 |
